Measurements reported in PubChem BioAssay AID1259283 (Sanger Institute, 2017).
The deposit covers 794 reagents; shown is a part drawn at random. Of all reagents, 14 (1.8%) are marked active. 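Calls reflect only viability loss without drug; drug synergy does not enter the call.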 The numbers tell different reagents against one gene apart. Viability is capped at 1. Not given: the amount of reagent, the time to read-out.

Aim: 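Kinases needed for HT115 growth and partners for drug synergy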 (primary screen)
System: HT115 colorectal cancer cells
Reagents: siRNA pool against human genes
Treatment: anchor drug given one day after siRNA: BYL719 at 1 µM, cetuximab at 5 µg/ml, trametinib at 10 nM, or DMSO vehicle alone
Read-out: 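Viability normalised to non-targeting pool #2 wells and averaged over replicates, robust z-score against control wells, and a synergy score for each of three drugs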
Reading the numbers: robust z-score, knock-down alone: higher = more viable cells after knock-down; viability, DMSO vs non-targeting control: higher = more viable cells; synergy score with BYL719 and synergy score with cetuximab and synergy score with trametinib: higher = stronger synergy with drug (synthetic lethal)
Hit rule: 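a gene counts as essential when its robust z-score with knock-down alone is below -3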
Meaning of the calls: active = essential (z below -3, no drug); inactive = no change without drug

| target | pool no. | robust z-score, knock-down alone | viability, DMSO vs non-targeting control (fraction of control) | synergy score with BYL719 | synergy score with cetuximab | synergy score with trametinib | call |
| --- | --- | --- | --- | --- | --- | --- | --- |
| PKN3 | 1 | 0.789 | 1 | 0.000563 | 0.0304 | 0.147 | inactive |
| WNK4 | 1 | 0.789 | 1 | 0.0302 | 0.00648 | 0.0672 | inactive |
| PTGS1 | 1 | -0.64 | 0.868 | 0.0493 | 0.127 | 0.0203 | inactive |
| CSF1R | 1 | 0.44 | 0.968 | 0.0808 | 0.0539 | 0.0296 | inactive |
| GAK | 1 | -0.165 | 0.912 | 0.0211 | -0.0148 | 0.0964 | inactive |
| EIF2AK4 | 1 | 0.523 | 0.975 | 0.0481 | 0.0146 | -0.0639 | inactive |
| DYRK1B | 1 | -1.33 | 0.804 | -0.0498 | -0.112 | 0.0146 | inactive |
| ILK | 1 | 0.00463 | 0.928 | -0.0933 | -0.0875 | -0.0395 | inactive |
| ILK | 2 | -0.4 | 0.89 | 0.0928 | 0.148 | 0.184 | inactive |
| PLK4 | 1 | -2.78 | 0.67 | -0.209 | -0.0206 | 0.0619 | inactive |
| EFNA4 | 1 | 0.712 | 0.993 | -0.0294 | 0.0289 | 0.00232 | inactive |
| CDK15 | 1 | 0.789 | 1 | 0.119 | 0.0342 | 0.0513 | inactive |
| EPHA6 | 1 | -0.235 | 0.905 | 0.187 | 0.19 | 0.109 | inactive |
| ULK2 | 1 | -0.367 | 0.893 | 0.0929 | 0.0501 | 0.15 | inactive |
| ZAP70 | 1 | 0.658 | 0.988 | 0.115 | 0.0958 | 0.196 | inactive |
| PIP5K1B | 1 | 0.789 | 1 | 0.254 | 0.304 | 0.388 | inactive |
| CAMK1D | 1 | 0.789 | 1 | 0.00933 | 0.0641 | 0.0501 | inactive |
| PRKCSH | 1 | 0.41 | 0.965 | 0.0171 | 0.0291 | -0.0988 | inactive |
| PIK3CD | 1 | 0.789 | 1 | -0.0224 | 0.0553 | -0.0335 | inactive |
| SKAP1 | 1 | 0.565 | 0.979 | 0.0133 | 0.0329 | 0.0887 | inactive |
| MARK2 | 1 | 0.21 | 0.947 | 0.019 | -0.0921 | 0.116 | inactive |
| NEK9 | 1 | -0.389 | 0.891 | 0.0828 | 0.0329 | 0.139 | inactive |
| STK10 | 1 | 0.26 | 0.951 | -0.00528 | 0.0451 | 0.0145 | inactive |
| IDH2 | 1 | 0.634 | 0.986 | -0.0341 | -0.00202 | -0.00215 | inactive |
| PKLR | 1 | 0.239 | 0.949 | 0.0869 | 0.0865 | 0.173 | inactive |
| GRK7 | 1 | -0.724 | 0.86 | -0.0509 | 0.0272 | 0.0976 | inactive |
| PAPSS1 | 1 | -0.167 | 0.912 | -0.0403 | 0.0515 | 0.0512 | inactive |
| ERN2 | 1 | 0.789 | 1 | 0.0431 | -0.0435 | -0.0381 | inactive |
| MAP3K12 | 1 | 0.784 | 1 | -0.0121 | 0.0311 | 0.101 | inactive |
| ACSL6 | 1 | 0.789 | 1 | 0.00117 | -0.0288 | 0.0215 | inactive |
| NEK10 | 1 | 0.789 | 1 | -0.0079 | 0.0203 | 0.0971 | inactive |
| ASPM | 1 | 0.789 | 1 | 0.0106 | 0.0613 | 0.088 | inactive |
| MAPKAPK5 | 1 | -0.851 | 0.848 | -0.0533 | -0.0984 | -0.137 | inactive |
| TLK2 | 1 | 0.789 | 1 | 0.019 | 0.0739 | -0.0543 | inactive |
| PRKACA | 1 | 0.789 | 1 | 0.153 | 0.162 | 0.127 | inactive |
| STK38L | 1 | -2.54 | 0.692 | -0.172 | 0.039 | 0.0549 | inactive |
| EPHA10 | 1 | -1.58 | 0.781 | -0.121 | 0.0966 | 0.104 | inactive |
| MAST2 | 1 | 0.789 | 1 | -0.015 | 0.0626 | 0.134 | inactive |
| ACVR1 | 1 | 0.789 | 1 | 0.165 | 0.109 | 0.213 | inactive |
| TSSK1B | 1 | -0.0722 | 0.92 | -0.0843 | 0.0443 | 0.0658 | inactive |
| CRKL | 1 | 0.789 | 1 | 0.0078 | 0.0017 | 0.0243 | inactive |
| PRKAA2 | 1 | 0.544 | 0.977 | 0.0125 | 0.0911 | 0.0663 | inactive |
| AAK1 | 1 | 0.451 | 0.969 | 0.0302 | 0.0694 | 0.114 | inactive |
| PGK1 | 1 | 0.652 | 0.987 | -0.0348 | 0.0899 | 0.069 | inactive |
| ITK | 1 | 0.384 | 0.963 | 0.108 | 0.0319 | 0.0348 | inactive |
| PIP4K2C | 1 | 0.109 | 0.937 | -0.0371 | -0.0816 | -0.039 | inactive |
| FGR | 1 | 0.571 | 0.98 | 0.149 | 0.13 | 0.12 | inactive |
| GRK1 | 1 | -0.566 | 0.875 | -0.0722 | -0.00307 | -0.125 | inactive |
| TGFBR1 | 1 | 0.789 | 1 | 0.0583 | 0.0655 | 0.156 | inactive |
| ATR | 1 | 0.735 | 0.995 | -0.0273 | 0.0662 | 0.102 | inactive |

Limited to “synergy score with BYL719” (4 entries from above):
TLK2	0.019
PRKACA	0.153
STK38L	-0.172
EPHA10	-0.121
